{"source": "PubChem BioAssay AID1259302 (Sanger Institute, 2017)", "assay": "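Kinome siRNAs acting in synergy with BYL719, cetuximab or trametinib in colorectal cancer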 (follow-up of hits)", "cells": "human SW1116 colorectal cancer cells", "knock-down reagent": "single siRNA against human genes", "challenge": "anchor drugs BYL719 at 1 µM, cetuximab at 5 µg/ml or trametinib at 10 nM, each compared with DMSO vehicle; exposure time not given", "measurement": "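Mean replicate viability as a ratio to pooled non-targeting control siRNA, plus per-drug synergy scores comparing siRNA with drug against each given on its own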", "direction": "synergy score with trametinib and synergy score with BYL719 and synergy score with cetuximab: higher = stronger synthetic lethal interaction with the drug", "call rule": "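An siRNA is called active if its synergy score is above 0.10 for at least one of BYL719, cetuximab or trametinib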", "note": "Here is an unselected part of 160 deposited reagents. 122 of them (76%) were called active. 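Most active calls come from the trametinib arm; viability under BYL719 or cetuximab treatment is not printed.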 The numbers tell different reagents against one gene apart. Not all columns of the deposit are shown. Not given: the amount of reagent, the time to read-out."}
{"Target gene": "NR2F2 (nuclear receptor subfamily 2 group F member 2)", "reagent": 1, "synergy score with trametinib": 0.099, "synergy score with BYL719": -0.19, "synergy score with cetuximab": -0.138, "call": "inactive"}
{"Target gene": "NR2F2 (nuclear receptor subfamily 2 group F member 2)", "reagent": 2, "synergy score with trametinib": 0.157, "synergy score with BYL719": -0.054, "synergy score with cetuximab": 0.0956, "call": "active"}
{"Target gene": "NR2F2 (nuclear receptor subfamily 2 group F member 2)", "reagent": 3, "synergy score with trametinib": 0.308, "synergy score with BYL719": 0.013, "synergy score with cetuximab": 0.228, "call": "active"}
{"Target gene": "NR2F2 (nuclear receptor subfamily 2 group F member 2)", "reagent": 4, "synergy score with trametinib": 0.298, "synergy score with BYL719": 0.0522, "synergy score with cetuximab": 0.147, "call": "active"}
{"Target gene": "BRAF (B-Raf proto-oncogene, serine/threonine kinase)", "reagent": 1, "synergy score with trametinib": 0.0446, "synergy score with BYL719": -0.0422, "synergy score with cetuximab": 0.00394, "call": "inactive"}
{"Target gene": "BRAF (B-Raf proto-oncogene, serine/threonine kinase)", "reagent": 2, "synergy score with trametinib": 0.234, "synergy score with BYL719": 0.0504, "synergy score with cetuximab": 0.0212, "call": "active"}
{"Target gene": "BRAF (B-Raf proto-oncogene, serine/threonine kinase)", "reagent": 3, "synergy score with trametinib": 0.169, "synergy score with BYL719": 0.0324, "synergy score with cetuximab": -0.0715, "call": "active"}
{"Target gene": "BRAF (B-Raf proto-oncogene, serine/threonine kinase)", "reagent": 4, "synergy score with trametinib": 0.173, "synergy score with BYL719": -0.107, "synergy score with cetuximab": -0.0042, "call": "active"}
{"Target gene": "AK2 (adenylate kinase 2)", "reagent": 1, "synergy score with trametinib": 0.174, "synergy score with BYL719": -0.164, "synergy score with cetuximab": -0.0463, "call": "active"}
{"Target gene": "AK2 (adenylate kinase 2)", "reagent": 2, "synergy score with trametinib": 0.44, "synergy score with BYL719": 0.114, "synergy score with cetuximab": 0.26, "call": "active"}
{"Target gene": "AK2 (adenylate kinase 2)", "reagent": 3, "synergy score with trametinib": 0.15, "synergy score with BYL719": -0.0131, "synergy score with cetuximab": 0.00192, "call": "active"}
{"Target gene": "AK2 (adenylate kinase 2)", "reagent": 4, "synergy score with trametinib": 0.318, "synergy score with BYL719": -0.0117, "synergy score with cetuximab": 0.267, "call": "active"}

Limited to “synergy score with BYL719” (2 entries from above):
BRAF (B-Raf proto-oncogene, serine/threonine kinase) #4	-0.107
AK2 (adenylate kinase 2) #1	-0.164
